The test system of this assay is BDF1 mice, B16 melanoma ip, median survival T/C. In words: NCI In Vivo Anticancer Drug Screen. Data for tumor model B16 Melanoma (intraperitoneal) in B6D2F1 (BDF1) mice. As to conditions: T/C endpoint: median survival time, higher T/C = longer survival. The method in brief: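 Read-out: survival or tumor size, given as treated/control ratio. Controls received vehicle only; animals bore transplantable tumors.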

Where [1] appears, read: dose: 10.0 mg/kg/injection, schedule: Q01DX009 (ip), vehicle: Klucel (hydroxypropylcellulose) (HPC).
The mark [2] stands for this setting: dose: 20.0 mg/kg/injection, schedule: Q01DX009 (ip), vehicle: Klucel (hydroxypropylcellulose) (HPC).
Setting [3] is: dose: 40.0 mg/kg/injection, schedule: Q01DX009 (ip), vehicle: Klucel (hydroxypropylcellulose) (HPC).
Where [4] appears, read: dose: 80.0 mg/kg/injection, schedule: Q01DX009 (ip), vehicle: Klucel (hydroxypropylcellulose) (HPC).
The mark [5] stands for this setting: dose: 200.0 mg/kg/injection, schedule: Q01DX009 (ip), vehicle: saline with Tween-80.
Where [6] appears, read: dose: 6.25 mg/kg/injection, schedule: Q01DX009 (ip), vehicle: Klucel (hydroxypropylcellulose) (HPC).
Setting [7] is: dose: 12.5 mg/kg/injection, schedule: Q01DX009 (ip), vehicle: Klucel (hydroxypropylcellulose) (HPC).
Setting [8] is: dose: 25.0 mg/kg/injection, schedule: Q01DX009 (ip), vehicle: Klucel (hydroxypropylcellulose) (HPC).
[9] abbreviates: dose: 50.0 mg/kg/injection, schedule: Q01DX009 (ip), vehicle: Klucel (hydroxypropylcellulose) (HPC).
The mark [10] stands for this setting: dose: 100.0 mg/kg/injection, schedule: Q01DX009 (ip), vehicle: Klucel (hydroxypropylcellulose) (HPC).

The list shows only some results of the screen, not a fair sample: it covers a few groups of compounds. Other doses and runs of a compound may be missing. T/C: endpoint of the treated group in % of that of the vehicle group. Some entries give survivors of the animals treated and no T/C: the source holds a T/C of zero for them, seemingly a mark for toxic or unscored doses. Some doses without a T/C left all or most animals alive at the check, yet need not have been tolerated: the source hardly ever lists a survival T/C far under the control, and the zero likely stands for such cases as well. Counts of survivors are from the toxicity check (mostly the fifth day) where no day follows; animals may have died later. Schedule codes are those of the source, read here as Q, the interval in days (D) or hours (H), X, the number of doses. Some entries were tested several times; their values stand side by side, smallest first. For survival time, the PubChem record calls one and a half times the control and up active, and a quarter to a half above the control has no call in these data; cut-offs in other NCI protocols can differ. Some T/C values are followed by the survivors on the day toxicity was checked, most often the fifth; without a count or a note in brackets, all were alive then. Some T/C values are marked as having no survivor count here; that says nothing about deaths at the dose.

Regarding `C1C[N-]1.C1C[N-]1.[Cl][Pt+2][Cl]`, the T/C by setting is: (dose: 0.62 mg/kg/injection, schedule: Q01DX009 (ip), vehicle: saline) 117 % of control; (dose: 1.25 mg/kg/injection, schedule: Q01DX009 (ip), vehicle: saline) 115 % of control; (dose: 2.5 mg/kg/injection, schedule: Q01DX009 (ip), vehicle: Klucel (hydroxypropylcellulose) (HPC)) 100 and 110 % of control; (dose: 2.5 mg/kg/injection, schedule: Q01DX009 (ip), vehicle: saline) 112 % of control; (dose: 5.0 mg/kg/injection, schedule: Q01DX009 (ip), vehicle: Klucel (hydroxypropylcellulose) (HPC)) 97 and 110 % of control; (dose: 5.0 mg/kg/injection, schedule: Q01DX009 (ip), vehicle: saline) 133 % of control. For the same compound, the T/C runs as follows: under setting [1], 105 and 115 % of control [9 of 10 alive]; (dose: 10.0 mg/kg/injection, schedule: Q01DX009 (ip), vehicle: saline) 161 % of control; (dose: 10.0 mg/kg/injection, schedule: Q04DX003 (ip), vehicle: Klucel (hydroxypropylcellulose) (HPC)) 94 % of control [8 of 10 alive]; (dose: 20.0 mg/kg/injection, schedule: Q04DX003 (ip), vehicle: Klucel (hydroxypropylcellulose) (HPC)) 97 % of control [9 of 10 alive]; (dose: 40.0 mg/kg/injection, schedule: Q04DX003 (ip), vehicle: Klucel (hydroxypropylcellulose) (HPC)) 105 % of control [8 of 10 alive]; (dose: 80.0 mg/kg/injection, schedule: Q04DX003 (ip), vehicle: Klucel (hydroxypropylcellulose) (HPC)) 123 % of control. Further, the survivor count runs as follows: under setting [2], 10 of 10; (dose: 20.0 mg/kg/injection, schedule: Q01DX009 (ip), vehicle: saline) 10 of 10; under setting [3], 9 of 10 and 10 of 10; (dose: 40.0 mg/kg/injection, schedule: Q01DX009 (ip), vehicle: saline) 9 of 10; under setting [4], 0 of 10; (dose: 80.0 mg/kg/injection, schedule: Q01DX009 (ip), vehicle: saline) 1 of 10. Besides, for the setting “dose: 160.0 mg/kg/injection, schedule: Q04DX003 (ip), vehicle: Klucel (hydroxypropylcellulose) (HPC)”, the survivor count is recorded as 5 of 10.

In the case of `CC1C(c2ccccc2)OCCN1C` (configuration not stated), the T/C was 116 % of control (dose: 12.5 mg/kg/injection, schedule: Q01DX009 (ip), vehicle: saline); 117 % of control (dose: 50.0 mg/kg/injection, schedule: Q01DX009 (ip), vehicle: saline); 102 % of control (dose: 100.0 mg/kg/injection, schedule: Q01DX009 (ip), vehicle: saline); 97 % of control [9 of 10 alive] (dose: 200.0 mg/kg/injection, schedule: Q01DX009 (ip), vehicle: saline). Further, the survivor count (dose: 25.0 mg/kg/injection, schedule: Q01DX009 (ip), vehicle: saline) is recorded as 9 of 10.

For the compound `CC1CCCCN1.C[CH2][Sn]([Br])([CH2]C)[CH2]C`, the T/C by setting is: (dose: 0.75 mg/kg/injection, schedule: Q01DX009 (ip), vehicle: Klucel (hydroxypropylcellulose) (HPC)) 109 % of control; (dose: 1.5 mg/kg/injection, schedule: Q01DX009 (ip), vehicle: Klucel (hydroxypropylcellulose) (HPC)) 103 % of control; (dose: 3.0 mg/kg/injection, schedule: Q01DX009 (ip), vehicle: Klucel (hydroxypropylcellulose) (HPC)) 113 % of control; (dose: 6.0 mg/kg/injection, schedule: Q01DX009 (ip), vehicle: Klucel (hydroxypropylcellulose) (HPC)) 107 % of control [9 of 10 alive]; (dose: 12.0 mg/kg/injection, schedule: Q01DX009 (ip), vehicle: Klucel (hydroxypropylcellulose) (HPC)) 105 % of control.

As for `CCCC1OP(N)(=O)OCC1CC` (configuration not stated), the T/C was 100 % of control (dose: 100.0 mg/kg/injection, schedule: Q01DX009 (ip), vehicle: saline with Tween-80); 96 % of control under setting [5]; 98 % of control (dose: 400.0 mg/kg/injection, schedule: Q01DX009 (ip), vehicle: saline with Tween-80).

For `CCN(CC)[P+](c1ccc(OC)cc1OC)(N(CC)CC)N(CC)CC.F[P-](F)(F)(F)(F)F`, the T/C runs as follows: (dose: 3.12 mg/kg/injection, schedule: Q01DX009 (ip), vehicle: Klucel (hydroxypropylcellulose) (HPC)) 109 % of control; under setting [6], 113 % of control; under setting [7], 105 % of control. For the same compound, the survivor count under setting [8] is 9 of 10 and the survivor count under setting [9] is recorded as 5 of 10.

In the case of `ClCCNc1nc2ccccc2c2ccccc12`, the T/C under setting [1] is 106 % of control, the T/C under setting [2] is 106 % of control and the T/C under setting [3] is 110 % of control. Further, the survivor count under setting [4] is 1 of 6.

In the case of `Nc1cc([As]=O)ccc1O` (configuration not stated), the T/C is 110 % of control (dose: 12.5 mg/kg/injection, schedule: Q02DX009 (ip), vehicle: saline with Tween-80) and 110 % of control (dose: 25.0 mg/kg/injection, schedule: Q02DX009 (ip), vehicle: saline with Tween-80). In addition, the survivor count runs as follows: (dose: 50.0 mg/kg/injection, schedule: Q02DX009 (ip), vehicle: saline with Tween-80) 8 of 10; (dose: 75.0 mg/kg/injection, schedule: Q02DX009 (ip), vehicle: saline with Tween-80) 7 of 10.

For the compound `O=P(Cl)(Cl)NC12CC3CC(CC(C3)C1)C2`, the T/C is 100 % of control [9 of 10 alive] under setting [8] and 100 % of control under setting [9]. Moreover, under setting [10], the survivor count is on record as 4 of 10.

As for `CCN(CC)CCN1CCN=C1Cc1ccccc1.O=[N+]([O-])c1cc([N+](=O)[O-])c(O)c([N+](=O)[O-])c1`, the T/C runs as follows: (dose: 50.0 mg/kg/injection, schedule: Q04DX003 (ip), vehicle: Klucel (hydroxypropylcellulose) (HPC)) 95 % of control [survivor count not shown]; (dose: 100.0 mg/kg/injection, schedule: Q04DX003 (ip), vehicle: Klucel (hydroxypropylcellulose) (HPC)) 96 % of control [survivor count not shown]; (dose: 200.0 mg/kg/injection, schedule: Q04DX003 (ip), vehicle: Klucel (hydroxypropylcellulose) (HPC)) 96 % of control [survivor count not shown].

`CCCCOP(OCCCC)OCCCC`: the T/C by setting is: (dose: 100.0 mg/kg/injection, schedule: Q04DX003 (ip), vehicle: saline with Tween-80) 93 % of control; (dose: 200.0 mg/kg/injection, schedule: Q04DX003 (ip), vehicle: saline with Tween-80) 86 % of control. In addition, the survivor count (dose: 400.0 mg/kg/injection, schedule: Q04DX003 (ip), vehicle: saline with Tween-80) was 9 of 10.

As for `CC(=O)OC(SC(OC(C)=O)C(Cl)(Cl)Cl)C(Cl)(Cl)Cl` (configuration not stated), the T/C by setting is: under setting [6], 95 % of control [9 of 10 alive]; under setting [7], 101 % of control; (dose: 21.75 mg/kg/injection, schedule: Q01DX009 (ip), vehicle: Klucel (hydroxypropylcellulose) (HPC)) 96 % of control; under setting [8], 88 % of control; (dose: 43.5 mg/kg/injection, schedule: Q01DX009 (ip), vehicle: Klucel (hydroxypropylcellulose) (HPC)) 98 % of control; under setting [9], 89 % of control. Besides, the T/C (dose: 87.0 mg/kg/injection, schedule: Q01DX009 (ip), vehicle: Klucel (hydroxypropylcellulose) (HPC)) is 97 % of control and the T/C under setting [10] is 87 % of control. For the same compound, the survivor count is on record as 10 of 10 (dose: 87.0 mg/kg/injection, schedule: Q01DX009 (ip), vehicle: saline with Tween-80); 10 of 10 (dose: 133.0 mg/kg/injection, schedule: Q01DX009 (ip), vehicle: saline with Tween-80); 10 of 10 (dose: 200.0 mg/kg/injection, schedule: Q01DX009 (ip), vehicle: Klucel (hydroxypropylcellulose) (HPC)); 9 of 10 under setting [5]; 9 of 10 (dose: 300.0 mg/kg/injection, schedule: Q01DX009 (ip), vehicle: saline with Tween-80).

These data come from PubChem BioAssay AID192 (DTP/NCI, 2004).
